Some of these results come from one statement about several compounds together.
test system: Phytophthora infestans; type: in vivo; conditions: preventive, tomato, 500 ppm of active ingredient, evaluated 7 days after inoculation

With `CCOC(=O)C(C#N)=C(NC(C)C(=O)CC)c1cccnc1Cl` (racemic) [Compound 1270] as the compound, how does the efficacy read?
The efficacy was ≥ 70%.

How did the efficacy turn out when `CCOC(=O)C(C#N)=C(NCc1nccs1)c1ccncc1Cl` [Compound 259] was run?
The efficacy was ≥ 70%.

`CCOC(=O)C(C#N)=C(NC(C)C(N)=O)c1cccnc1C(F)(F)F` (centres unmarked) [Compound 705] was tested. Which efficacy did it give?
Its efficacy is ≥ 70%.

`CCOC(=O)C(C#N)=C(NC(C)c1nccs1)c1ccncc1F` (centres unmarked) [Compound 318] was tested. Which efficacy did it give?
Its efficacy is ≥ 70%.

`CCOC(=O)C(C#N)=C(NC(C)CC(=O)Nc1ccccc1C)c1cccnc1Cl` (centres unmarked) [Compound 1192] was tested. Which efficacy did it give?
The efficacy was ≥ 70%.

With `CCOC(=O)C(C#N)=C(NC(C)C(C)C)c1cn(C)nc1I` (centres unmarked) [Compound 1202] as the compound, how does the efficacy read?
The efficacy was ≥ 70%.

With `CCOC(=O)C(C#N)=C(NC(C)c1nc(C)c(C)s1)c1cn(C)nc1C(F)F` (racemic) [Compound 33] as the compound, how does the efficacy read?
Its efficacy is ≥ 70%.

With `CCOC(=O)C(C#N)=C(NC(C)COCC(C)(C)C)c1cn(C)nc1C(F)F` (centres unmarked) [Compound 1135] as the compound, how does the efficacy read?
The efficacy was ≥ 70%.

How did the efficacy turn out when `CC(NC(=C(C#N)C(=O)N1CCCO1)c1cccnc1Cl)c1nccs1` (centres unmarked) [Compound 1599] was run?
The efficacy was ≥ 70%.

For `CCOC(=O)C(C#N)=C(NC(C)c1nccs1)c1c(C(F)F)nn(C)c1Cl` (racemic) [Compound 234], which efficacy is on record?
Its efficacy is ≥ 70%.

`CCOC(=O)C(C#N)=C(NC(C)Cc1c[nH]c2ccccc12)c1cn(C)nc1C(F)F` (racemic) [Compound 35] was tested. Which efficacy did it give?
The efficacy was ≥ 70%.

With `CC(NC(=C(C#N)C(=O)NC1CC1)c1cn(C)nc1C(F)F)c1ccccn1` (racemic) [Compound 1280] as the compound, how does the efficacy read?
Its efficacy is ≥ 70%.

Which efficacy does the source give for `COC(=O)C(C#N)=C(Nc1ccc(C(C)C)cc1)c1sc(C)nc1C(F)(F)F` [Compound 487] here?
Its efficacy is ≥ 70%.

`CCOC(=O)C(C#N)=C(NC(C)C(C)C)c1cccnc1C(F)(F)F` (centres unmarked) [Compound 970] was tested. Which efficacy did it give?
Its efficacy is ≥ 70%.

For `COC(=O)CC(C)NC(=C(C#N)C(=O)OC)c1cccnc1Cl` (centres unmarked) [Compound 620], which efficacy is on record?
Its efficacy is ≥ 70%.

For `CCOC(=O)C(C#N)=C(Nc1ccc2ncsc2c1)c1cn(C)nc1C(F)F` [Compound 473], which efficacy is on record?
Its efficacy is ≥ 70%.

For `CCOC(=O)C(C#N)=C(NC(C)c1ccc(C(F)(F)F)cn1)c1cccnc1Cl` (mixture of isomers) [Compound 285], which efficacy is on record?
Its efficacy is ≥ 70%.

For `CCOC(=O)C(C#N)=C(NC(C)c1nccs1)c1scnc1Cl` (centres unmarked) [Compound 1464], which efficacy is on record?
The efficacy was ≥ 70%.

For `CCOC(=O)C(C#N)=C(NC(C)c1csc(Cl)n1)c1cccnc1Cl` (centres unmarked) [Compound 322], which efficacy is on record?
The efficacy was ≥ 70%.

How did the efficacy turn out when `CCOC(=O)C(C#N)=C(NC(C)C1CC1)c1ccncc1Cl` (racemic) [Compound 898] was run?
Its efficacy is ≥ 70%.

For `CCOC(=O)C(C#N)=C(NCc1ncc(C)s1)c1sccc1C(F)(F)F` [Compound 217], which efficacy is on record?
The efficacy was ≥ 70%.

With `CCOC(=O)C(C#N)=C(NC(C)c1ccc(F)cc1)c1cccnc1Cl` (centres unmarked) [Compound 1149] as the compound, how does the efficacy read?
Its efficacy is ≥ 70%.

With `CCOC(=O)C(C#N)=C(NC(c1ccccn1)C(F)(F)F)c1cccnc1Cl` (racemic) [Compound 1549] as the compound, how does the efficacy read?
The efficacy was ≥ 70%.

With `CCOC(=O)C(C#N)=C(NC(C)COc1ccc(F)cc1)c1cccnc1Cl` (centres unmarked) [Compound 1166] as the compound, how does the efficacy read?
The efficacy was ≥ 70%.

For `CCOC(=O)C(C#N)=C(NC(C)C(N)=O)c1cc(Cl)ncc1Cl` (centres unmarked) [Compound 721], which efficacy is on record?
Its efficacy is ≥ 70%.

`CC(NC(=C(C#N)C(=O)NC1CC1)c1cccnc1Cl)C1CC1` (mixture of isomers) [Compound 1115] was tested. Which efficacy did it give?
Its efficacy is ≥ 70%.

`CCOC(=O)C(C#N)=C(NCc1ccccn1)c1cn(C)nc1C(F)F` [Compound 32] was tested. Which efficacy did it give?
The efficacy was ≥ 70%.

How did the efficacy turn out when `CCOC(=O)C(C#N)=C(NC(C)c1nccs1)c1cccnc1F` (centres unmarked) [Compound 79] was run?
The efficacy was ≥ 70%.

With `CCOC(=O)C(C#N)=C(Nc1ccccc1SCC)c1cn(C)nc1C(F)F` [Compound 1228] as the compound, how does the efficacy read?
The efficacy was ≥ 70%.

With `CCOC(=O)C(C#N)=C(NC1CC1CC)c1cccnc1Cl` (centres unmarked) [Compound 1190] as the compound, how does the efficacy read?
Its efficacy is ≥ 70%.

Which efficacy does the source give for `CCOC(=O)C(C#N)=C(NC(C)c1ccccc1C)c1cn(C)nc1C(F)F` (centres unmarked) [Compound 1365] here?
The efficacy was ≥ 70%.

For `CCOC(=O)C(C#N)=C(Nc1ccccc1SC)c1ccc(Cl)nc1Cl` [Compound 360], which efficacy is on record?
The efficacy was ≥ 70%.

With `CCOC(=O)C(C#N)=C(NC(C)c1ccccc1)c1cccnc1Cl` (centres unmarked) [Compound 1151] as the compound, how does the efficacy read?
Its efficacy is ≥ 70%.

For `CCOC(=O)C(C#N)=C(NC(C)COC)c1sccc1Br` (centres unmarked) [Compound 734], which efficacy is on record?
The efficacy was ≥ 70%.

Which efficacy does the source give for `CCOC(=O)C(C#N)=C(NC(C)COc1ccc(F)cc1)c1cn(C)nc1C(F)F` (centres unmarked) [Compound 736] here?
Its efficacy is ≥ 70%.

`CCOC(=O)C(C#N)=C(NC(C)c1nccs1)c1c(C(F)F)nn(C)c1F` (mixture of isomers) [Compound 309] was tested. Which efficacy did it give?
The efficacy was ≥ 70%.

How did the efficacy turn out when `CCOC(=O)C(C#N)=C(Nc1cccc(SC)c1)c1cccnc1Cl` [Compound 1266] was run?
The efficacy was ≥ 70%.

For `CCOC(=O)C(C#N)=C(NC(C)COCc1ccccc1)c1cn(C)nc1C(F)F` (centres unmarked) [Compound 739], which efficacy is on record?
Its efficacy is ≥ 70%.

Which efficacy does the source give for `CCOC(=O)C(C#N)=C(NC(C)(C)CSC)c1cc(C)oc1C` [Compound 619] here?
The efficacy was ≥ 70%.

`CCOC(=O)C(C#N)=C(NC(C)C(C)C)c1cn(C)nc1C(F)F` (centres unmarked) [Compound 1003] was tested. Which efficacy did it give?
The efficacy was ≥ 70%.

With `CCNC(=O)C(C#N)=C(NC(C)c1ccccn1)c1cccnc1Cl` (centres unmarked) [Compound 1584] as the compound, how does the efficacy read?
The efficacy was ≥ 70%.

`CCOC(=O)C(C#N)=C(NC(C)c1ccncn1)c1cccnc1Cl` (centres unmarked) [Compound 330] was tested. Which efficacy did it give?
Its efficacy is ≥ 70%.

`CCOC(=O)C(C#N)=C(NC1CC2CCC1C2)c1cccnc1Cl` (centres unmarked) [Compound 1080] was tested. Which efficacy did it give?
Its efficacy is ≥ 70%.

For `CCOC(=O)C(C#N)=C(NC(C)c1nccs1)c1cn(C)nc1C(F)(F)F` (racemic) [Compound 63], which efficacy is on record?
Its efficacy is ≥ 70%.

How did the efficacy turn out when `COC(=O)C(C#N)=C(NC(C)c1ccc(Cl)cc1)c1cn(C)nc1C(F)F` (centres unmarked) [Compound 356] was run?
Its efficacy is ≥ 70%.

`C=CCOC(=O)C(C#N)=C(NC(C)c1nccs1)c1cn(C)nc1C(F)F` (mixture of isomers) [Compound 305] was tested. Which efficacy did it give?
The efficacy was ≥ 70%.

With `CCOC(=O)C(C#N)=C(NC(C)c1nccs1)c1cccnc1Br` (racemic) [Compound 1547] as the compound, how does the efficacy read?
Its efficacy is ≥ 70%.

With `CCOC(=O)C(C#N)=C(Nc1ccc(OC(F)F)cc1)c1cccnc1Cl` [Compound 1169] as the compound, how does the efficacy read?
The efficacy was ≥ 70%.

How did the efficacy turn out when `CCOC(=O)C(C#N)=C(NC(C)(C)C)c1cn(C)nc1C(F)F` [Compound 1418] was run?
Its efficacy is ≥ 70%.

Which efficacy does the source give for `CCOC(=O)C(C#N)=C(NC(C)c1cccc(Cl)c1)c1cccnc1Cl` (centres unmarked) [Compound 1152] here?
The efficacy was ≥ 70%.

For `CCOC(=O)C(C#N)=C(NC(C)c1nccs1)c1cn(C)nc1I` (racemic) [Compound 1247], which efficacy is on record?
Its efficacy is ≥ 70%.

`CCOC(=O)C(C#N)=C(NC1CCC1C)c1cccnc1Cl` (centres unmarked) [Compound 1065] was tested. Which efficacy did it give?
The efficacy was ≥ 70%.

With `CC(C)OC(=O)C(C#N)=C(NC(C)c1nccs1)c1cccnc1Cl` (centres unmarked) [Compound 23] as the compound, how does the efficacy read?
The efficacy was ≥ 70%.

Which efficacy does the source give for `CCNC(=O)C(C#N)=C(NC(C)c1ccccn1)c1cn(C)nc1C(F)F` (racemic) [Compound 1293] here?
Its efficacy is ≥ 70%.

For `CCOC(=O)C(C#N)=C(NC(C)c1nccs1)c1cc(Cl)ncc1Cl` (racemic) [Compound 252], which efficacy is on record?
The efficacy was ≥ 70%.

How did the efficacy turn out when `CC(NC(=C(C#N)C(=O)OC1COC1)c1cccnc1Cl)C1CC1` (centres unmarked) [Compound 1281] was run?
Its efficacy is ≥ 70%.

How did the efficacy turn out when `CCOC(=O)C(C#N)=C(NC(c1ccc(N(C)C)cc1)C(F)(F)F)c1cccnc1Cl` (racemic) [Compound 1260] was run?
Its efficacy is ≥ 70%.

For `CCOC(=O)C(C#N)=C(NC(C)C1CC1)c1ccncc1F` (racemic) [Compound 904], which efficacy is on record?
Its efficacy is ≥ 70%.

For `CCOC(=O)C(C#N)=C(NC(C)C(C)(C)C)c1ccsc1Br` (racemic) [Compound 923], which efficacy is on record?
Its efficacy is ≥ 70%.

From patent US8476197B2, “Aminopropenoates as fungicides” (priority 2009, dated 2013)
